The values that follow come from PubChem BioAssay AID1487 (National Center for Advancing Translational Sciences (NCATS), 2009).

This assay in a line: qHTS Assay for Modulators of Lamin A Splicing. The settings on record: HeLa LMNA splicing GFP/RFP minigene ratio, 48 h. In a few lines: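 S3 HeLa cells stably expressing lamin A-EGFP splicing minigene plus DsRed2, 600 cells/well, 48 h compound exposure at 37C. Laser-scanning cytometry; analysed as GFP (500-530 nm)/RFP (575-640 nm) total intensity ratio; 0.5% DMSO vehicle.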

Where [1] appears, read: measured here: GFP splicing reporter channel.
Where [2] appears, read: measured here: RFP viability control channel.

The other results are listed elsewhere or left out. Shown are side measurements of this screen, not its main read-out; they come without a call. The list favours compounds with an active or inconclusive main result. Potencies come from curve fits of mixed quality, noted in brackets.

Broadly, the AC50 is the midpoint of the concentration-response curve, whichever way the signal moves. For `CC(=O)Nc1cn(-c2ccccc2)nc1-c1ccccc1`, the AC50 runs as follows: under setting [1], 17.8 µM [falling, partial curve, poor fit]; under setting [2], 2.82 µM [falling, partial curve].

With `CCC(C)C(=O)Nc1cc(C(=O)OC)ccc1C(=O)OC` (stereo not given), the AC50 runs as follows: under setting [1], 5.62 µM [falling, single point]; under setting [2], 5.62 µM [falling, single point].

On to `CCOC(=O)c1c(C)[nH]c(C(=O)OCCOc2ccccc2C)c1C`, for which, under setting [2], the AC50 is 0.355 µM [rising, full curve, poor fit].

As for `COc1ccc(/C=C/C(=O)c2ccc(NC(=O)c3cccs3)cc2)cc1OC`, the AC50 under setting [1] is 17.8 µM [falling, single point] and the AC50 under setting [2] is 35.5 µM [falling, single point].

For the compound `O=C(Nn1c(C2CCCCC2)nc2ccccc2c1=O)c1ccc([N+](=O)[O-])cc1Cl`, the AC50 by setting is: under setting [1], 10 µM [rising, single point]; under setting [2], 12.6 µM [rising, single point].

In the case of `Cc1cccc(/C=N/Nc2ccc3ccccc3n2)c1`, the AC50 under setting [2] is 4.47 µM [rising, partial curve, poor fit].

Consider `COc1ccc(NC(=O)CC2C(=O)N(c3ccc(Cl)cc3)C(=S)N2CCc2ccccn2)cc1` (stereo not given), for which the half-maximal activity concentration (AC50) under setting [1] is 2.82 µM [falling, single point].

On to `COc1ccc2[nH]c(C)c(CCNc3ccc(C(F)(F)F)cc3[N+](=O)[O-])c2c1`, for which the AC50 runs as follows: under setting [1], 14.1 µM [rising, single point]; under setting [2], 22.4 µM [rising, single point].

As for `O=C1c2cccc3c(N4CCCCC4)ccc(c23)C(=O)N1c1ccc(O)cc1`, the concentration at half-maximal activity (AC50) under setting [1] was 0.141 µM [rising, full curve, poor fit] and the AC50 under setting [2] was 0.0224 µM [rising, full curve].

Consider `Cc1cccc(CSc2ncc(CO)n2Cc2ccc(F)cc2)c1`, for which the half-maximal activity concentration (AC50) under setting [1] was 0.0251 µM [rising, full curve, poor fit].

On to `O=[N+]([O-])c1cc(S(=O)(=O)Nc2cccc(C(F)(F)F)c2)ccc1-n1nnc2ccccc21`, for which the AC50 under setting [2] was 11.2 µM [rising, partial curve].

Regarding `COc1cc(Br)c(CCNC(=O)c2ccco2)cc1OC`, the AC50 under setting [1] was 0.0316 µM [falling, full curve, poor fit] and the concentration at half-maximal activity (AC50) under setting [2] was 0.141 µM [falling, full curve, poor fit].

As for `Clc1ccc(CSCCc2ccncc2)cc1`, the AC50 reads like this: under setting [1], 35.5 µM [rising, single point]; under setting [2], 31.6 µM [rising, single point].

Regarding `COCCn1c(SCC(=O)Nc2ncc(C)s2)nc2sc3c(c2c1=O)CCC3`, the AC50 reads like this: under setting [1], 15.8 µM [rising, single point]; under setting [2], 25.1 µM [rising, single point].

As for `CN(C)c1ccc(/C=C/c2ccc3ccccc3[n+]2C)cc1`, the half-maximal activity concentration (AC50) by setting is: under setting [1], 35.5 µM [falling, single point]; under setting [2], 1.78 µM [rising, full curve].

On to `COc1ccc(NC(=S)NCc2ccc3c(c2)cc(C)n3C)cc1`, for which the concentration at half-maximal activity (AC50) under setting [2] is 17.8 µM [rising, single point].

Regarding `CCC1C(C#N)=C(SC)NC2=C1C(=O)CC(C)(C)C2` (stereo not given), the AC50 reads like this: under setting [1], 15.8 µM [rising, single point]; under setting [2], 22.4 µM [rising, partial curve].

For the compound `COc1ccccc1N(C)S(=O)(=O)c1ccc(C(=O)OC(C)C(=O)NCc2ccc3c(c2)OCO3)cc1` (stereo not given), under setting [2], the AC50 is 6.31 µM [rising, partial curve].

For the compound `NS(=O)(=O)c1ccc(CCNc2ncnc3sccc23)cc1`, the AC50 reads like this: under setting [1], 15.8 µM [rising, partial curve]; under setting [2], 7.94 µM [rising, partial curve].

Regarding `CCCc1ncc(C[n+]2ccccc2C)c(N)n1`, the AC50 by setting is: under setting [1], 0.0251 µM [rising, full curve, poor fit]; under setting [2], 0.0112 µM [rising, full curve].

Regarding `Cn1nc(C(F)(F)F)c(C(=O)Nc2cccc(C(F)(F)F)c2)c1SCc1ccc(Cl)cc1`, the AC50 under setting [2] was 35.5 µM [falling, single point].

For `Cc1cc(C)c(NC(=O)c2cc(CN3CCOCC3)on2)c(C)c1`, the AC50 is, setting by setting: under setting [1], 0.0178 µM [falling, full curve, poor fit]; under setting [2], 6.31 µM [falling, partial curve, poor fit].

For the compound `Clc1ccc(CCNc2ncnc3nc[nH]c23)cc1`, the AC50 runs as follows: under setting [1], 0.00562 µM [falling, full curve, poor fit]; under setting [2], 0.0447 µM [falling, full curve].

Turning to `C=CC(=O)NCC1OCCc2ccccc21` (stereo not given), the AC50 under setting [2] was 12.6 µM [falling, partial curve, poor fit].

Regarding `COc1ccc(N(Cc2ccccc2)C(=O)c2ccccc2[N+](=O)[O-])cc1`, the AC50 by setting is: under setting [1], 31.6 µM [rising, single point]; under setting [2], 35.5 µM [rising, single point].

Regarding `N#Cc1c(NC(=O)C2CC(c3c(F)cccc3Cl)=NO2)sc2c1CCC2` (stereo not given), the AC50 is 14.1 µM [rising, single point] under setting [1] and 22.4 µM [rising, partial curve] under setting [2].

As to `CCOC(=O)c1cc(C(=O)OCC)c2cc(Br)ccc2n1`, the AC50 under setting [1] is 0.158 µM [rising, full curve, poor fit].

With `CCOC(=O)N/N=C/c1cccc(Cl)c1Cl`, the AC50 under setting [1] was 3.16 µM [rising, single point] and the AC50 under setting [2] was 2.24 µM [rising, single point].

Consider `CCCCCCCCCCCCCCCC(=O)NCC(COP(=O)([O-])OCC[N+](C)(C)C)OCC` (stereo not given), for which the half-maximal activity concentration (AC50) reads like this: under setting [1], 5.62 µM [falling, full curve]; under setting [2], 3.98 µM [falling, full curve].

`CS(=O)(=O)N1N=C(c2ccccc2)CC1c1ccc2c(c1)OCO2` (stereo not given): under setting [2], the AC50 is 20 µM [rising, single point].

As to `Cc1ccccc1-n1c(SCC(=O)N/N=C/c2sccc2C)nc2ccccc2c1=O`, the AC50 under setting [1] was 1.58 µM [rising, full curve, poor fit].

As to `Cc1ccc(N(CC(=O)NCCc2ccc(F)cc2)S(=O)(=O)c2ccc(Cl)c([N+](=O)[O-])c2)c(C)c1`, the AC50 runs as follows: under setting [1], 35.5 µM [falling, single point]; under setting [2], 35.5 µM [falling, single point].

On to `CCc1ccc(-c2[nH]c3c(c2-c2c(-n4cccc4)n(C)c(=O)[nH]c2=O)c(=O)[nH]c(=O)n3C)cc1`, for which the AC50 is 2.82 µM [falling, partial curve] under setting [1] and 3.98 µM [falling, partial curve, poor fit] under setting [2].

`C=CCc1ccc(OCC(O)CN2CCC(Cc3ccccc3)CC2)c(OC)c1` (stereo not given): under setting [2], the AC50 is 11.2 µM [rising, partial curve, poor fit].

Turning to `O=C(Nc1ccccc1)c1ccc(F)c(S(=O)(=O)N2CCOCC2)c1`, the AC50 under setting [2] is 14.1 µM [rising, partial curve, poor fit].

As for `O=C1NC(=O)C(c2ccccc2[N+](=O)[O-])=C1Nc1ccc(O)c(Cl)c1`, the AC50 under setting [1] is 5.62 µM [falling, partial curve, poor fit] and the AC50 under setting [2] is 0.355 µM [rising, full curve].

For the compound `CCn1c(SCC(=O)Nc2cccc(F)c2)nc2c(c1=O)SC(C)C2` (stereo not given), the concentration at half-maximal activity (AC50) under setting [2] was 14.1 µM [rising, partial curve].

For `O=C(CSc1nc2ncccc2[nH]1)c1cccc([N+](=O)[O-])c1`, under setting [2], the AC50 was 2.82 µM [rising, partial curve, poor fit].

Regarding `COc1ccc(OC)c(-c2cc(C(=O)NCCCn3ccnc3)no2)c1`, the AC50 under setting [2] is 2.24 µM [rising, partial curve, poor fit].

Take `O=C(c1cc(-c2ccncc2)nc2ccc(Br)cc12)N1CCN(Cc2ccc3c(c2)OCO3)CC1`: the AC50 under setting [1] was 35.5 µM [falling, single point].

Turning to `Cn1c(=O)n(C)c2cc(NS(=O)(=O)c3ccc4c(c3)CCCC4)ccc21`, the AC50 under setting [2] was 3.16 µM [rising, single point].

Regarding `COc1ccccc1NC(=O)c1nnn(Cc2ccccc2)c1NC(=O)C(F)(F)F`, the AC50 under setting [1] was 11.2 µM [rising, single point].

For the compound `COC(=O)N/N=C/c1cccc(OCCSc2ccc(Cl)cc2)c1`, the AC50 was 15.8 µM [rising, partial curve] under setting [1] and 25.1 µM [rising, partial curve] under setting [2].

Take `O=S(=O)(NCCc1csc(-c2ccc(F)cc2)n1)c1ccc(F)cc1F`: the AC50 under setting [2] is 11.2 µM [rising, partial curve, poor fit].

With `Cc1ccnc(NC(=S)NC(=O)/C=C/c2ccco2)c1`, under setting [2], the AC50 is 10 µM [rising, partial curve, poor fit].

On to `COC(=O)c1c(NC(=O)COC(=O)Cn2cnc3ccccc32)sc(C)c1C`, for which the AC50 under setting [1] was 22.4 µM [rising, single point] and the AC50 under setting [2] was 35.5 µM [rising, single point].

On to `COC(=O)/C(=N/Nc1ccccc1)N1CCCc2ccccc21`, for which the concentration at half-maximal activity (AC50) reads like this: under setting [1], 11.2 µM [rising, single point]; under setting [2], 10 µM [rising, single point].

As for `COC(=O)c1cc(NC(=O)Nc2cccc(Cl)c2)ccc1Cl`, the AC50 by setting is: under setting [1], 15.8 µM [falling, single point]; under setting [2], 35.5 µM [falling, single point].

`O=C(CSc1ncnc2nc[nH]c12)c1ccccc1`: the AC50 under setting [2] was 25.1 µM [falling, single point].

In the case of `CS(=O)(=O)N(Cc1ccc(Cl)cc1)c1ccc(C(=O)NCCSCc2ccco2)cc1`, the AC50 is, setting by setting: under setting [1], 15.8 µM [rising, single point]; under setting [2], 14.1 µM [rising, single point].

For `CC1C=CCC2C(=O)N(c3ccc(Cl)cc3O)C(=O)C12` (stereo not given), the AC50 reads like this: under setting [1], 0.0501 µM [falling, partial curve, poor fit]; under setting [2], 0.158 µM [falling, full curve, poor fit].

With `CC(C)CN(C(=O)c1ccco1)c1nc2ccccc2s1`, the AC50 under setting [1] is 14.1 µM [rising, single point].
